Measurements reported in PMC11845619.
Results are given in words; binding and its absence hold for the method and conditions named. Binding seen in cells or lysates may run through a third protein. Some entries that bind do so weakly or less than the wild type. Sequences can lack the tags named with a protein.

Protein sequences, listed by entry. Tags and fused reporters are not part of them.
UniProt Q92560: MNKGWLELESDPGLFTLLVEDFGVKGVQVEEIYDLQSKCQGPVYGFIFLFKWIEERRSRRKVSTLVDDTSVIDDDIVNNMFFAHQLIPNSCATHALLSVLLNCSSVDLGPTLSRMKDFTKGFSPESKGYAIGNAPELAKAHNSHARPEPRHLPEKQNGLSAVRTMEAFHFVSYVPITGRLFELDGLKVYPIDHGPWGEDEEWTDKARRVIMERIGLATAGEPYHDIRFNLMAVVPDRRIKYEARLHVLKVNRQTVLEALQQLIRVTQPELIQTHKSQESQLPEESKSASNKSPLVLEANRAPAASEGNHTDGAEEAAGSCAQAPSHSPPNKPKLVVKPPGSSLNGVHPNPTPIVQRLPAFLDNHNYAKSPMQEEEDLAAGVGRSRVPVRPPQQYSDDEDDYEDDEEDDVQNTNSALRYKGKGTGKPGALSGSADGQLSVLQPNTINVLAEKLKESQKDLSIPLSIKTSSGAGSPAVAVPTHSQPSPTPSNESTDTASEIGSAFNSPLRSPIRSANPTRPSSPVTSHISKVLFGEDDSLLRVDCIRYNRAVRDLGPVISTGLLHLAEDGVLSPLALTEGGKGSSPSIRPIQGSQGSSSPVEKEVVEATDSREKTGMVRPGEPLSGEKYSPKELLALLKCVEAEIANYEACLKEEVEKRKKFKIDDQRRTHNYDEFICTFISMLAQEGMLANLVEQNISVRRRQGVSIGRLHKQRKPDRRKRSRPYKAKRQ

Target: BRCA1-associated protein 1 (BAP1), endogenous nuclear (human (endogenous in PLC/PRF/5)) (UniProt Q92560)
Assay: co-IP; anti-BAP1 antibody on endogenous nuclear proteins of PLC/PRF/5 cells; blot for OGT

binding: binds
B1: O-linked N-acetylglucosamine (GlcNAc) transferase (OGT) (enzyme, UniProt O15294 1-1046)
chain: MASSVGNVADSTEPTKRMLSFQGLAELAHREYQAGDFEAAERHCMQLWRQEPDNTGVLLLLSSIHFQCRRLDRSAHFSTLAIKQNPLLAEAYSNLGNVYKERGQLQEAIEHYRHALRLKPDFIDGYINLAAALVAAGDMEGAVQAYVSALQYNPDLYCVRSDLGNLLKALGRLEEAKACYLKAIETQPNFAVAWSNLGCVFNAQGEIWLAIHHFEKAVTLDPNFLDAYINLGNVLKEARIFDRAVAAYLRALSLSPNHAVVHGNLACVYYEQGLIDLAIDTYRRAIELQPHFPDAYCNLANALKEKGSVAEAEDCYNTALRLCPTHADSLNNLANIKREQGNIEEAVRLYRKALEVFPEFAAAHSNLASVLQQQGKLQEALMHYKEAIRISPTFADAYSNMGNTLKEMQDVQGALQCYTRAIQINPAFADAHSNLASIHKDSGNIPEAIASYRTALKLKPDFPDAYCNLAHCLQIVCDWTDYDERMKKLVSIVADQLEKNRLPSVHPHHSMLYPLSHGFRKAIAERHGNLCLDKINVLHKPPYEHPKDLKLSDGRLRVGYVSSDFGNHPTSHLMQSIPGMHNPDKFEVFCYALSPDDGTNFRVKVMAEANHFIDLSQIPCNGKAADRIHQDGIHILVNMNGYTKGARNELFALRPAPIQAMWLGYPGTSGALFMDYIITDQETSPAEVAEQYSEKLAYMPHTFFIGDHANMFPHLKKKAVIDFKSNGHIYDNRIVLNGIDLKAFLDSLPDVKIVKMKCPDGGDNADSSNTALNMPVIPMNTIAEAVIEMINRGQIQITINGFSISNGLATTQINNKAATGEEVPRTIIVTTRSQYGLPEDAIVYCNFNQLYKIDPSTLQMWANILKRVPNSVLWLLRFPAVGEPNIQQYAQNMGLPQNRIIFSPVAPKEEHVRRGQLADVCLDTPLCNGHTTGMDVLWAGTPMVTMPGETLASRVAASQLTCLGCLELIAKNRQEYEDIAVKLGTDLEYLKKVRGKVWKQRISSPLFNTKQYTMELERLYLQMWEHYAAGNKPDHMIKPVEVTESA
